The chains are these.
B1: UPF1 (protein, UniProt Q92900 1-1129)
chain: MSVEAYGPSSQTLTFLDTEEAELLGADTQGSEFEFTDFTLPSQTQTPPGGPGGPGGGGAGGPGGAGAGAAAGQLDAQVGPEGILQNGAVDDSVAKTSQLLAELNFEEDEEDTYYTKDLPIHACSYCGIHDPACVVYCNTSKKWFCNGRGNTSGSHIVNHLVRAKCKEVTLHKDGPLGETVLECYNCGCRNVFLLGFIPAKADSVVVLLCRQPCASQSSLKDINWDSSQWQPLIQDRCFLSWLVKIPSEQEQLRARQITAQQINKLEELWKENPSATLEDLEKPGVDEEPQHVLLRYEDAYQYQNIFGPLVKLEADYDKKLKESQTQDNITVRWDLGLNKKRIAYFTLPKTDSGNEDLVIIWLRDMRLMQGDEICLRYKGDLAPLWKGIGHVIKVPDNYGDEIAIELRSSVGAPVEVTHNFQVDFVWKSTSFDRMQSALKTFAVDETSVSGYIYHKLLGHEVEDVIIKCQLPKRFTAQGLPDLNHSQVYAVKTVLQRPLSLIQGPPGTGKTVTSATIVYHLARQGNGPVLVCAPSNIAVDQLTEKIHQTGLKVVRLCAKSREAIDSPVSFLALHNQIRNMDSMPELQKLQQLKDETGELSSADEKRYRALKRTAERELLMNADVICCTCVGAGDPRLAKMQFRSILIDESTQATEPECMVPVVLGAKQLILVGDHCQLGPVVMCKKAAKAGLSQSLFERLVVLGIRPIRLQVQYRMHPALSAFPSNIFYEGSLQNGVTAADRVKKGFDFQWPQPDKPMFFYVTQGQEEIASSGTSYLNRTEAANVEKITTKLLKAGAKPDQIGIITPYEGQRSYLVQYMQFSGSLHTKLYQEVEIASVDAFQGREKDFIILSCVRANEHQGIGFLNDPRRLNVALTRARYGVIIVGNPKALSKQPLWNHLLNYYKEQKVLVEGPLNNLRESLMQFSKPRKLVNTINPGARFMTTAMYDAREAIIPGSVYDRSSQGRPSSMYFQTHDQIGMISAGPSHVAAMNIPIPFNLVMPPMPPPGYFGQANGPAAGRGTPKGKTGRGGRQKNRFGLPGPSQTNLPNSQASQDVASQPFSQGALTQGYISMSQPSQMSQPGLSQPELSQDSYLGDEFKSQIDVALSQDSTYQGERAYQHGGVTGLSQY

Chains of the proteins cited; added tags and fusions are not shown.
UniProt Q9UN81: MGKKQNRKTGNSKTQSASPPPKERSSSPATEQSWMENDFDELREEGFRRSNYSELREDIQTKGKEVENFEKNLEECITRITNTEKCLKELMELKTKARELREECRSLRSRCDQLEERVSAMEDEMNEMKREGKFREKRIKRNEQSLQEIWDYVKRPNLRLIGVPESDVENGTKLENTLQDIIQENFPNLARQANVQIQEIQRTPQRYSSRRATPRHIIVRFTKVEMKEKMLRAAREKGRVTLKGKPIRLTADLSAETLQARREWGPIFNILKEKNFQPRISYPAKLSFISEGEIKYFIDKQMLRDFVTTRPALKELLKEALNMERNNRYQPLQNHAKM
UniProt P08238: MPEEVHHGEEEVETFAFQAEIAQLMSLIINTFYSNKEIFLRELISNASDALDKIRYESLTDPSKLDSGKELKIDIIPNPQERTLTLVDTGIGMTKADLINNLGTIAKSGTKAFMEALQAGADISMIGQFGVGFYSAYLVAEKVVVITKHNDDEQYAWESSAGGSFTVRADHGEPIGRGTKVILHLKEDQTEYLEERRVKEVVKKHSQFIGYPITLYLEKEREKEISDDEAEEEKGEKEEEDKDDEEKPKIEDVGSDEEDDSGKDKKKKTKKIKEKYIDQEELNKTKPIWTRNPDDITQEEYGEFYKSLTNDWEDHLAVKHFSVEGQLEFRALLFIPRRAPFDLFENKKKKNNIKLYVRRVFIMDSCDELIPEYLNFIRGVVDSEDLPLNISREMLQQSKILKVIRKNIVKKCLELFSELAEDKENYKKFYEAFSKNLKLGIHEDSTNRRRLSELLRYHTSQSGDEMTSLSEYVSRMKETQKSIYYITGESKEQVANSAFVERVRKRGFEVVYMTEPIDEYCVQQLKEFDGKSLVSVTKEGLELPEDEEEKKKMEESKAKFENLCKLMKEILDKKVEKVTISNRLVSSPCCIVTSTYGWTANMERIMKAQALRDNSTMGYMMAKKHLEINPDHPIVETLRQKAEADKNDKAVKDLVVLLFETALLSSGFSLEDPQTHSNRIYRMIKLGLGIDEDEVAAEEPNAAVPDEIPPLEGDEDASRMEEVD
UniProt P07437: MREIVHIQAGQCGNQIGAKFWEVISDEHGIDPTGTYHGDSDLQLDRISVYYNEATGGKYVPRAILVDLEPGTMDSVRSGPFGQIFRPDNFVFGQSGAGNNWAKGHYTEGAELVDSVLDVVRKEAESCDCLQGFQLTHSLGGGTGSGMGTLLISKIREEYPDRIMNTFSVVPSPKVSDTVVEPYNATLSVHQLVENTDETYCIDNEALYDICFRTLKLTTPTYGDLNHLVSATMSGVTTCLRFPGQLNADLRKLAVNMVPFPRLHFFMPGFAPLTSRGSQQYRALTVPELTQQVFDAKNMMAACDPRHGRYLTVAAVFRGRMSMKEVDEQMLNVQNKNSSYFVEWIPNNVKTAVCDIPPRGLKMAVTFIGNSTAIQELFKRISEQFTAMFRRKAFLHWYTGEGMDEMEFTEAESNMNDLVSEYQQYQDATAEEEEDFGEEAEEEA

No constants are given. Whether binding was seen depends on the method and setting. In cells and extracts the contact can be indirect. Here binding means that the protein was enriched with, or labelled near, the bait; the list need not be complete.

The target of this experiment is LINE-1 ORF1p, endogenous in colorectal cancers (L1RE1, consensus ORF1p) (human (endogenous in colorectal tumours)) (UniProt Q9UN81). Put plainly: affinity purification with mass spectrometry; anti-ORF1p (Millipore Sigma #MABC1152) affinity medium with clarified extracts of cryomilled patient colorectal tumours A, B, C; 20 mM HEPES pH 7.4, 500 mM NaCl, 1% Triton X-100; 1 h at 4 °C; label-free quantitative MS against mouse IgG mock capture or matched normal tissue; second set of tumour A with RNasin.
In the case of HSP90AA1 (from UniProt P07900 1-732), the binding entry was “binds”.
For HSP90AB1 (from UniProt P08238 1-724) the value was “binds”; for TUBB (from UniProt P07437 1-444), “binds”; for B1, “binds”.

Source of the values: PMC6937734.
